Reference: patent US20120196933A1, “MEXILETINE PRODRUGS” (priority 2010, published 2012)
At least one structure is not confirmed: it was looked up by name or label, or the drawing left a doubt. Marks after values point to notes of the source that are not given here. Some results were stated once for a whole list of compounds, not compound by compound.

Columns and labels:
[1] = Systemic availability of mexiletine in the dog from mexiletine prodrugs (oral gavage); assay type: in vivo; conditions: 1 mg/kg mexiletine free base, relative to mexiletine, Hydrochloride
Procedure: Test substances (i.e., mexiletine, and various mexiletine amino acid prodrugs) were administered by oral gavage to groups of two or some cases five dogs. The characteristics of the test animals are set out in Table 6.
Blood samples were taken at various times after administration and submitted to analysis for parent drug using a validated LC-MS-MS assay. Pharmacokinetic parameters derived from the plasma bioanalytical data were determined using Win Nonlin.

[2] = tested on: 9-AC induced myotonia in the rat; assay: Anti-myotonic effects in 9-anthracene carboxylic acid (9-AC) treated rats (righting time); assay type: in vivo; conditions: 9-AC 30 mg/kg ip, 9-AC +30 mins
Procedure: The use of ip injection of 9-anthracene carboxylic acid is known to induce a myotonic state in rats which can then be used to assess the activity of potential anti-myotonic compounds (Villegas-NavarroA et al (1992) Exp. Toxicol. Pathol. 44 34-39).
Groups of four rats were predosed with 30 mg/kg 9-AC (time 0) and ten minutes later their righting time was assessed repeatedly seven times in rapid succession. They were then dosed po with mexiletine or mexiletine glutamic acid amide at 1, 5, 10, 20 or 40 mg/kg and the righting time reassessed at ˜30, 60, 120 and 180 minutes after 9-AC injection. At each dose level, a group of four control animals, given vehicle alone, was used

Row | Compound | F(rel) [1] [%] | Mean ± SEM righting response time ([2]; drug 5 mg/kg po) | Mean ± SEM righting response time ([2]; drug 10 mg/kg po) [s] | Mean ± SEM righting response time ([2]; drug 20 mg/kg po) [s] | Mean ± SEM righting response time ([2]; drug 40 mg/kg po) [s]
1 | CC(=O)N[C@@H](CCCCN)C(=O)NC(C)COc1c(C)cccc1C.Cl (stereo partly drawn) [Mexiletine [(S)-N^α-acetyl-lysine] amide, Mexiletine [(S)—N^α-Acetyl-Lysine] Amide Hydrochloride] | > 80 |  |  |  | 
2 | Cc1cccc(C)c1OCC(C)NC(=O)C(N)CCC(=O)O.Cl (mixture of isomers) [Mexiletine glutamic acid amide, Mexiletine-(S)-Glutamic Acid Amide Hydrochloride] |  | 2.45* 0.153 secs | 2.44 ± 0.529 | 1.74 ± 0.223 | 1.04 ± 0.123
